Test results reported in US5962533A, “Hydroxy polyamines” (priority 1996, dated 1999).
Structures can show the parent of a compound that is named as a salt.

Tested on: L1210 cells
Experiment: Polyamine pool analysis in analogue-treated L1210 cells (HPLC)
Assay type: cell-based, Murine
Protocol: Polyamine Pool Analysis. While in logarithmic growth, cells were treated with the polyamine derivatives. […] Each supernatant was frozen at -20° C. until analysis by HPLC.

| Compound | intracellular concentration of analogue (L1210 cells, 0.7 μm (0.4*Ki) for 4 hours) | Analogue amount in cells (L1210 cells, 0.7 μm analogue) | intracellular concentration of analogue (L1210 cells, 3.5 μm (2*Ki)) | Analogue amount in cells (L1210 cells, 3.5 μm analogue) | intracellular concentration of analogue (L1210 cells grown in 10 μm for 48 hours) | Analogue amount in cells (L1210 cells, 10 μm analogue) |
| --- | --- | --- | --- | --- | --- | --- |
| CCNCC[C@@H](O)CNCCCCNC[C@H](O)CCNCC [(HO)2 DEHSPM, N^1,N^14 -Diethyl-3(R),12(R)-dihydroxyhomospermine tetrahydrochloride] | 1.3 mm | 1.32 nmol/10^6 cells | 2.7 mm | 2.73 nmol/10^6 cells | – | – |
| CCNCCCCNCCCCNCCCCNCC [DEHSPM, Diethylhomospermine] | – | – | – | – | 2.94 mm | 2.94 nmol/10^6 cells |
